PubChem BioAssay AID504764 – Drosophila RNAi Screening Center, 2011
Assay: 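Knock-downs that raise or lower a Notch target reporter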 (primary screen). Cell system: Drosophila Kc167 cells. Reagents: long dsRNA against Drosophila genes. Duration: about 5 days (4 days dsRNA, then 24 h after transfection). Conditions: transfection of constitutively active membrane-tethered Notch lacking the extracellular domain, read 24 h later. Detection: 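Firefly luciferase from an E(spl)m3 reporter with active Notch, plus control-promoter and uninduced reporter wells for normalisation; unnormalised counts, duplicate wells a and b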. Direction: induced reporter light, run 1, well a and induced reporter light, run 1, well b: higher = more light from the Notch target reporter with active Notch; control promoter light, run 1, well a and control promoter light, run 1, well b: higher = more light from the viral control promoter (cell number, transfection, viability); uninduced reporter light, run 1, well a: higher = more light from the Notch target reporter without active Notch. Active means: 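Hit if the duplicate-averaged log2 ratio of induced to control-promoter light gives a plate-wise z beyond ±2, or induced to uninduced beyond ±1.8; weak-control or discordant-duplicate wells dropped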. Calls: active = modifier hit (raised or lowered Notch signal); inactive = not a hit.
The deposit covers about 22,000 reagents; below is a random part of those with a known target gene and a result. Of all reagents, 403 (1.9%) were called active. 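Unnormalised raw counts per well; ratio z-scores behind the hit calls and whether each hit raises or lowers signal are not deposited.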 Names joined by + are all predicted targets of the reagent. Reagent sequences are not shown. Not given: the amount of reagent.

target gene	amplicon	induced reporter light, run 1, well a	induced reporter light, run 1, well b	control promoter light, run 1, well a	control promoter light, run 1, well b	uninduced reporter light, run 1, well a	activity call
stw (straw)	DRSC04842	1.69e5	1.62e5	1.74e5	1.41e5	12080	inactive
stw (straw)	DRSC04843	1.80e5	1.76e5	1.59e5	1.65e5	13500	inactive
stw (straw)	DRSC22527						inactive
Cyp6a16Psi (retired record)	DRSC03307	1.31e5	1.31e5	1.37e5	1.02e5	9015	inactive
dac (dachshund)	DRSC03518	1.49e5	1.59e5	1.56e5	1.77e5	11480	inactive
SRPK (SR Protein Kinase)	DRSC07090	1.09e5	98060	1.85e5	2.14e5	11282	inactive
CG16904	DRSC15161	1.59e5	1.34e5	89705	87665	10055	inactive
CG32069 + Blos2	DRSC10621	10915	12255	10505	3070	700	inactive
CG33770	DRSC11717	1.21e5	1.49e5	1.45e5	1.24e5	8525	inactive
Gr59f (Gustatory receptor 59f)	DRSC04499	2.00e5	1.79e5	1.96e5	1.71e5	11985	inactive
Rdh (Red herring)	DRSC08063	4830	4635	5775	5090	3685	inactive
Rdh (Red herring)	DRSC08434	10930	13475	10265	11060	3032	inactive
CG31522	DRSC12005	1.52e5	2.02e5	2.29e5	2.38e5	16092	inactive
CG2201	DRSC03721	2.30e5	1.69e5	1.60e5	1.69e5	17030	inactive
CG34193	DRSC05665	1.20e5	1.26e5	2.06e5	1.84e5	10275	inactive
beat-IV (beaten path IV)	DRSC14195	1.63e5	1.61e5	2.03e5	2.20e5	14455	inactive
beat-IV (beaten path IV)	DRSC14673	2.33e5	2.00e5	3.08e5	3.51e5	19730	inactive
CG42565	DRSC04154	1.96e5	2.10e5	1.74e5	1.89e5	14140	inactive
Mat89Ba (Maternal transcript 89Ba)	DRSC14540	1.74e5	1.99e5	2.57e5	2.39e5	13515	inactive
GNBP-like3 (GNBP-like 3)	DRSC06385	1.15e5	1.09e5	1.18e5	1.23e5	8100	inactive

An excerpt from above, limited to “control promoter light, run 1, well a”.
CG16904 [DRSC15161]: 89705
CG32069 + Blos2 [DRSC10621]: 10505
CG33770 [DRSC11717]: 1.45e5
